Assay results published in article doi:10.1101/2025.02.28.640455.
Where two headings read alike, the source gives them in different places. These are yes or no findings as the source states them, for the method shown. In cells and extracts the contact can be indirect. Here binding means that the protein was enriched with, or labelled near, the bait; the list need not be complete. Blank lines part the entries; values can stand above or below the molecule they belong to.

The chains behind the UniProt entries cited, without tags or fusion partners.
UniProt Q60722: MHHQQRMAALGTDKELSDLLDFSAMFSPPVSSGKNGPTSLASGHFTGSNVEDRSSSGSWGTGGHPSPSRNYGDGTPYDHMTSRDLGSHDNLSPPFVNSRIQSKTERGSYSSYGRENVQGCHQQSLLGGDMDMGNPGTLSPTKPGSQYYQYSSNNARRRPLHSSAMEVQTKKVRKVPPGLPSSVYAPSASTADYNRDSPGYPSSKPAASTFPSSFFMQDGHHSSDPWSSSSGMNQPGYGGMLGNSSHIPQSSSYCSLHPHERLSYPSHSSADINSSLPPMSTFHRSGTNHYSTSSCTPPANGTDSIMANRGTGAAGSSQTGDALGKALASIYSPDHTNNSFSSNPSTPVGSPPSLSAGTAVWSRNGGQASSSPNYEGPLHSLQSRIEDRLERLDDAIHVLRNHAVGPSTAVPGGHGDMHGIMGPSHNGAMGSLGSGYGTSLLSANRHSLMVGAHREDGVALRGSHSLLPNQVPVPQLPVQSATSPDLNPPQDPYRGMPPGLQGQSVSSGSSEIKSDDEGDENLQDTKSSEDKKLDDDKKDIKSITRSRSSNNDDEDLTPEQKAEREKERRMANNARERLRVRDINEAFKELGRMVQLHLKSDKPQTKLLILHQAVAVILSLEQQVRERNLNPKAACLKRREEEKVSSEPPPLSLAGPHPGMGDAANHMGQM
UniProt P42227: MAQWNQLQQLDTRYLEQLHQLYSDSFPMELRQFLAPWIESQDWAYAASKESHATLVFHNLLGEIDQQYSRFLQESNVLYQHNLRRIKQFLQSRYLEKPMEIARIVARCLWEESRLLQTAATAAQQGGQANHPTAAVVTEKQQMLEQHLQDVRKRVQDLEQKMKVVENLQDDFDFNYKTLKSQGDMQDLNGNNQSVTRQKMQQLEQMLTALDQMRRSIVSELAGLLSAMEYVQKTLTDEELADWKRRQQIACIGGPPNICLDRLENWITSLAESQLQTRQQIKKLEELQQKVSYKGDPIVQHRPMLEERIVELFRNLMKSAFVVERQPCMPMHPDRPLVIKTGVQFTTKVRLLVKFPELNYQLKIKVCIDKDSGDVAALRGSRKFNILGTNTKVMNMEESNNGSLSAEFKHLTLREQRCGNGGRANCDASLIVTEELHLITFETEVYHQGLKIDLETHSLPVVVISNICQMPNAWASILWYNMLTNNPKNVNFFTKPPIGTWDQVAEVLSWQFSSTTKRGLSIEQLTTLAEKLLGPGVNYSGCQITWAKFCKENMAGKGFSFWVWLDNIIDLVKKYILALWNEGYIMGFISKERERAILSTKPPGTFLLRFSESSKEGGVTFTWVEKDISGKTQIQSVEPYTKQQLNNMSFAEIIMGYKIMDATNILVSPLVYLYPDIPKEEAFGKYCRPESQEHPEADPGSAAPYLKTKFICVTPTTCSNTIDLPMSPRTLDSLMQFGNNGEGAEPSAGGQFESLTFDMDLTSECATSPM

How the values were obtained:
[1] = target: Transcription factor 4 (TCF4) (mouse (endogenous in E12.5 Nr5a1-GFP gonadal cells)) (UniProt Q60722); test: affinity purification with mass spectrometry; endogenous TCF4 immunoprecipitated (anti-TCF4 crosslinked to Protein G Dynabeads, IgG control) from lysates of FACS-sorted E12.5 XX or XY Nr5a1-GFP gonadal cells, three replicates of 4 million cells; overnight at 4°C; washes up to 1% Triton X-100 and 360 mM NaCl; LC-MS (DIA); partners at least 1.5-fold over IgG, P <= 0.05
[2] = target: Transcription factor 4 (TCF4) (mouse (endogenous in E12.5 Nr5a1-GFP gonadal cells)) (UniProt Q60722); test: as above; remark: listed apart in the source

B1: TCF21 (protein, UniProt O35437 1-179)
chain: MSTGSLSDVEDLQEVEMLDCDSLKVDSNKEFGTSNESTEEGSNCENGSPQKGRGGLGKRRKAPTKKSPLSGVSQEGKQVQRNAANARERARMRVLSKAFSRLKTTLPWVPPDTKLSKLDTLRLASSYIAHLRQILANDKYENGYIHPVNLTWPFMVAGKPENDLKEVVTANRLCGTTAS
binding [2]: binds

B2: LMX1B (protein, UniProt O88609 1-395)
chain: MDIATGPESLERCFPRGQTDCAKMLDGIKMEEHALRPGPATLGVLLGSDCPHPAVCEGCQRPISDRFLMRVNESSWHEECLQCAACQQALTTSCYFRDRKLYCKQDYQQLFAAKCSGCMEKIAPTEFVMRALECVYHLGCFCCCVCERQLRKGDEFVLKEGQLLCKGDYEKEKDLLSSVSPDESDSVKSEDEDGDMKPAKGQGSQSKGSGDDGKDPRRPKRPRTILTTQQRRAFKASFEVSSKPCRKVRETLAAETGLSVRVVQVWFQNQRAKMKKLARRHQQQQEQQNSQRLGQEVLSSRMEGMMASYTPLAPPQQQIVAMEQSPYGSSDPFQQGLTPPQMPGNDSIFHDIDSDTSLTSLSDCFLGSSDVGSLQARVGNPIDRLYSMQSSYFAS
binding [2]: binds

B3: KDM4A (protein, UniProt Q8BW72 1-1064)
chain: MASESETLNPSARIMTFYPTMEEFRNFSRYIAYIESQGAHRAGLAKVVPPKEWKPRTSYDDIDDLVIPAPIQQLVTGQSGLFTQYNIQKKAMTVREFRKIANSDKYCTPRYSEFEELERKYWKNLTFNPPIYGADVNGTLYEQHVDEWNIGRLKTILDLVEKESGITIEGVNTPYLYFGMWKTSFAWHTEDMDLYSINYLHFGEPKSWYSVPPEHGKRLERLAKGFFPGSAQSCEAFLRHKMTLISPLMLKKYGIPFDKVTQEAGEFMITFPYGYHAGFNHGFNCAESTNFATRRWIEYGKQAVLCSCRKDMVKISMDVFVRRFQPERYKLWKAGKDSMVIDHTLPTPEAAEFLKDSGGLTPRAGSEECPEEDVEAADQGEEGDVKRSLAKHRIGTKRHRVCLEIPQEVSQSELFPKEELSSGQYEMTECPATLAPVRPTHSSVRQVEDSLPFPDYSDPTEVKFEELKNVKLEEEDEEDEPEAAALDLSVNPASVGGRLVFSGSKKKSSSSLGSTSSQDSVSSDSETAESVSCQGQEKTGVLTVHSYARGDGKAATGEPSVKKKRSAPRSISEQELAEVADEYMLSLEENKKTKGRRQPLSKLPRHHPLVLQECGSDDETSEQLTPEEEAEETEAWAKPLSQLWQNRPPNFEAEKEFNEIMAQQAPHCAVCMIFQTYHQVEFGAFSQSCGDASEPAAQTQRTKPLIPEMCFTTTGCSTDINLSTPYLEEDGTSMLVSCKKCSVRVHASCYGVPPAKASEEWMCSRCSANALEEDCCLCSLRGGALQRANDDRWVHVSCAVAILEARFVNIAERSPVDVSKIPLPRFKLKCVFCKKRRKRNAGCCVQCSHGRCPTAFHVSCAQAAGVMMQPDDWPFVVFITCFRHKIPNLERAKGALLSITAGQKVISKHKNGRFYQCEVVRLTTETFYEVNFDDGSFSDNLYPEDIVSQDCLQLGPPAEGEVVQVRWTDGQVYGAKFVASHPIQMYQVEFEDGSQLVVKRDDVYTLDEELPKRVKSRLSVASDMRFNEIFTEKEVKQEKKRQRVINSRYREDYIEPALYRAIME
binding [2]: binds

B5: NFYB (protein, UniProt P63139 1-207)
chain: MTMDGDSSTTDASQLGISADYIGGSHYVIQPHDDTEDSMNDHEDTNGSKESFREQDIYLPIANVARIMKNAIPQTGKIAKDAKECVQECVSEFISFITSEASERCHQEKRKTINGEDILFAMSTLGFDSYVEPLKLYLQKFREAMKGEKGIGGAVSATDGLSEELTEEAFTNQLPAGLITADGQQQNVMVYTTSYQQISGVQQIQFS
binding [2]: binds

Other lines, results leading:

binding [1]: binds
Molecule: STAT3 (from UniProt P42227 1-770)

binding [2]: binds
B4: FOXL2 (protein, UniProt O88470 1-375)
chain: MMASYPEPEDTAGTLLAPESGRAVKEAEASPPSPGKGGGTTPEKPDPAQKPPYSYVALIAMAIRESAEKRLTLSGIYQYIIAKFPFYEKNKKGWQNSIRHNLSLNECFIKVPREGGGERKGNYWTLDPACEDMFEKGNYRRRRRMKRPFRPPPAHFQPGKGLFGSGGAAGGCGVPGAGADGYGYLAPPKYLQSGFLNNSWPLPQPPSPMPYASCQMAAAAAAAAAAAAAAGPGSPGAAAVVKGLAGPAASYGPYSRVQSMALPPGVVNSYNGLGGPPAAPPPPPPPPHPHPHPHAHHLHAAAAPPPAPPHHGAAAPPPGQLSPASPATAAPPAPAPTSAPGLQFACARQPELAMMHCSYWDHDSKTGALHSRLDL
